# Residue numbers refer to the chain shown, from its start. No constants are given. Whether binding was seen depends on the method and setting. For some assays here: In cells and extracts the contact can be indirect. Some results given as binding are weak or reduced against the parent protein; the word gives no strength. For some assays here: Tags and fused reporters may be left off the sequences shown.
# The chains behind the UniProt entries cited, without tags or fusion partners.
# UniProt P09760: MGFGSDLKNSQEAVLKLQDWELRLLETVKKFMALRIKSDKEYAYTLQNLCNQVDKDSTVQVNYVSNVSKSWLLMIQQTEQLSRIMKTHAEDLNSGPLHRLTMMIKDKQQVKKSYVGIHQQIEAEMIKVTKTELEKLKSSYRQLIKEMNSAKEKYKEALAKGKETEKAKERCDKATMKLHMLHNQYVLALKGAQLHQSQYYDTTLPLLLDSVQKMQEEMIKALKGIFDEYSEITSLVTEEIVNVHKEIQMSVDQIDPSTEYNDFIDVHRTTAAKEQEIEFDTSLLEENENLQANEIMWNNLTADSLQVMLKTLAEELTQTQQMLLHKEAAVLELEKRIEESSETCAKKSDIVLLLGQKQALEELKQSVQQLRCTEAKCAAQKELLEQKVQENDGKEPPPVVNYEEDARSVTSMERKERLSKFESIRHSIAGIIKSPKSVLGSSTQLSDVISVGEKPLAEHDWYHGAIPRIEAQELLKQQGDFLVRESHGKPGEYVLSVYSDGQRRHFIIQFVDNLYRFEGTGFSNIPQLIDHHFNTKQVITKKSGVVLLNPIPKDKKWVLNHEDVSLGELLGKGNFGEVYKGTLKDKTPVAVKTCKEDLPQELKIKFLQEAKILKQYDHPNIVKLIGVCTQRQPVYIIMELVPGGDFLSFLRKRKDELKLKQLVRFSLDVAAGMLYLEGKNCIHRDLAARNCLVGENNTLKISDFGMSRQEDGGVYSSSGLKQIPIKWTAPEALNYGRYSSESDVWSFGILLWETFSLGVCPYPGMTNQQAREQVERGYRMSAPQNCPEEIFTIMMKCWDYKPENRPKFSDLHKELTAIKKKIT
# T1: endogenous RhoGDIα (RBL-2H3 mast cells) (rat (endogenous in RBL-2H3)) (UniProt Q5XI73)
# T1 sequence: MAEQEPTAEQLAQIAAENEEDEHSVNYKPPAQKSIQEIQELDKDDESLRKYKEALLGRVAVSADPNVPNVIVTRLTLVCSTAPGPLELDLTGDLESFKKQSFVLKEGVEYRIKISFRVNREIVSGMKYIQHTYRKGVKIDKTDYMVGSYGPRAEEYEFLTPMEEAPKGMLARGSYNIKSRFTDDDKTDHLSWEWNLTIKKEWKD
# T2: RhoGDIα (Rho GDP-dissociation inhibitor α), transfected (UniProt P52565)
# T2 sequence: T1 sequence with I71V, R74G, T81S, M162V, N176S, E201D
# T3: RhoGDIα on far-Western blots (UniProt P52565)
# T3 sequence: T1 sequence with I71V, R74G, T81S, M162V, N176S, E201D
# T4: pEGFP-Fer (MT D742R), kinase dead mutant (UniProt P16591)
# T4 sequence: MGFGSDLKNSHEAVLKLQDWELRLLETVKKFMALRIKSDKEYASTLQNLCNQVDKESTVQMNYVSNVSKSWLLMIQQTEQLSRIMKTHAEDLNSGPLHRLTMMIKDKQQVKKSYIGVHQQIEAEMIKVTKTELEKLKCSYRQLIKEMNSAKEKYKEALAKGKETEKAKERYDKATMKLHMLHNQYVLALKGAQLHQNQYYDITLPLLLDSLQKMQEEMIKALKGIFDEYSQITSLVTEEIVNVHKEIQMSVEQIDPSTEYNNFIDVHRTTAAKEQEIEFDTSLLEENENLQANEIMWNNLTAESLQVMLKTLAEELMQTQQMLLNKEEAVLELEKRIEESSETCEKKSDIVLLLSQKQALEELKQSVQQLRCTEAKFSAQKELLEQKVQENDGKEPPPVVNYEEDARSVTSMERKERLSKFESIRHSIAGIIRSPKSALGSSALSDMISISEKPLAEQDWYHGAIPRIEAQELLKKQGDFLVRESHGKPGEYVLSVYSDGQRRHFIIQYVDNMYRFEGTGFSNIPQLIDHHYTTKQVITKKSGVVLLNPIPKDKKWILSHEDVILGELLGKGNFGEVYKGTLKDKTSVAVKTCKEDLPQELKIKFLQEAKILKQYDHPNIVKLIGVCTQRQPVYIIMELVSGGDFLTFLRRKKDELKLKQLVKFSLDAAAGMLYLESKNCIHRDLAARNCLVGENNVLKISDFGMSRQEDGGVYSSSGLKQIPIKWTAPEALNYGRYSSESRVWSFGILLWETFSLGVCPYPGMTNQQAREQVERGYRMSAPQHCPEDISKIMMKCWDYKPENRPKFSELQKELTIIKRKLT
# B1: RhoGDIα (Rho GDP-dissociation inhibitor α), transfected (protein, UniProt P52565 1-204)
# chain: T1 sequence with I71V, R74G, T81S, M162V, N176S, E201D
# What was measured:
# [1] = target: T1, endogenous RhoGDIα (RBL-2H3 mast cells) (rat (endogenous in RBL-2H3)); test: co-IP; endogenous proteins in RBL-2H3 mast cell lysates; Fer antibodies from Abcam, RhoGDIα antibodies from Santa Cruz
# [2] = target: T2, RhoGDIα (Rho GDP-dissociation inhibitor α), transfected; test: co-IP; COS-1 cells transfected with pEGFP-Fer (WT or MT) with or without RhoGDIα; IP with RhoGDIα antibodies or with Fer monoclonal rat antiserum, immunoblot; also after pervanadate (0.5 mM H2O2 + 0.5 mM vanadate, 5 min) in Figure 3A
# [3] = target: T3, RhoGDIα on far-Western blots; test: far-Western, overlay or dot blot; isolated Fer SH2 domain on far-Western blots of RhoGDIα; not shown
# [4] = target: T4, pEGFP-Fer (MT D742R), kinase dead mutant; test: co-IP; COS-1 cells transfected with pEGFP-Fer (WT or MT) with or without RhoGDIα; IP with RhoGDIα antibodies or with Fer monoclonal rat antiserum, immunoblot; also after pervanadate (0.5 mM H2O2 + 0.5 mM vanadate, 5 min) in Figure 3A
# [5] = target: pEGFP-Fer (wild type, WT) (UniProt P16591); test: as above
molecule,measurement,setting,value
endogenous Fer (RBL-2H3 mast cells) (from UniProt P09760 1-823) (enzyme),binding,[1],binds
"pEGFP-Fer (wild type, WT) (from UniProt P16591 1-822) (enzyme)",binding,[2],binds
isolated Fer SH2 domain (from UniProt P16591 460-550) (domain or fragment),binding,[3],binds
B1,binding,[4],binds
same,binding,[5],binds
